# The campaign covered roughly 340,000 compounds. About 4,500 (1.3%) were called active. The shares of active, inactive and inconclusive entries below differ from those in the screen. Calls come from the whole dose curve; as a rule, active = well fitted inhibition curve with a large enough effect; inconclusive = small, poorly fitted or top-dose-only effect, or another doubt; inactive = no such curve, though single readings can be large or run the other way. A potency beside an inconclusive call is a rough fit, not a confirmed value. The source holds several records for some structures; these can differ, active in one and inactive in another.
# Target: DNA polymerase beta (Homo sapiens) (UniProt P06746)
# Assay: qHTS Assay for Inhibitors of DNA Polymerase Beta
# Details: Pol beta primer extension/strand displacement, fluorescence kinetic; activity change, negative = inhibition: at 114 µM (top of the series)
# How it was run: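 Reaction started by 50 nM substrate onto compound-treated Pol beta (10 nM, 15 min preincubation, room temperature); plates read at 0 min and 10 min. Normalized concentration-effect data fitted by four-parameter Hill equation.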
# % is set by controls: 0 for no effect and ±100 for the full control effect; potency is the fitted concentration of half-maximal effect.
SMILES,"activity change, negative = inhibition",Potency
COc1cc(NC(=O)c2cc3nc(-c4ccccc4)cc(-c4ccccc4)n3n2)c(OC)cc1Cl,inconclusive: -35.6% [inhibitor],–
CCCCCCn1c(=O)[nH]c2nc3cc(N)ccc3nc2c1=O,–,active: 10 µM
c1ccc(-c2c3ccccc3nc3[nH]c4ccccc4c23)cc1,–,"inconclusive: 22.4 µM [inhibitor, single point]"
O=C(NCC1CCCO1)C1CCCN1C(=O)Nc1ccccc1[N+](=O)[O-] (stereo not drawn),–,"inconclusive: 89.1 µM [inhibitor, single point]"
COc1ccc(S(=O)(=O)c2ccc(OC)c(OC)c2)cc1OC,–,"inconclusive: 100 µM [inhibitor, single point]"
CCN1C(=S)N[C@@H](c2cccc(F)c2)C(C(=O)OC)=C1C,–,inactive
O=C(NCCc1ccccc1)c1ccccc1NC(=O)C1CCCO1 (stereo not drawn),–,"inconclusive: 25.1 µM [inhibitor, partial curve, poor fit]"
COc1cccc(CCNc2ncnc3c2nnn3C)c1,inactive: 0.132%,–
COc1ccc(/C=C2\CCCc3c2nc2ccc(C)cc2c3C(=O)O)cc1O,–,"inconclusive: 89.1 µM [inhibitor, single point]"
CCOC(=O)c1c(C)nc(C)c(C(=O)OCC)c1-c1ccc(OC)cc1,–,active: 0.158 µM
Fc1ccc(CNc2cc(-c3ccccc3)nc3nncn23)cc1,inactive: -1.53%,–
CN(CC(=O)NCc1ccc(F)cc1)S(=O)(=O)c1ccc2c(c1)c(=O)n(C)c(=O)n2C,inactive: 36.8%,–
CC1CCN(CCCNC(=O)C2CCN(S(=O)(=O)N3CCC4(CC3)OCCO4)CC2)CC1,inconclusive: -30.6% [inhibitor],–
O=C(N/N=C/c1c[nH]c2ccc(Br)cc12)c1ccncc1,–,"inconclusive: 70.8 µM [inhibitor, single point]"
Cc1ccccc1OCCn1cc(C(=S)N2CCN(C)CC2)c2ccccc21,–,"inconclusive: 11.2 µM [inhibitor, partial curve, poor fit]"
COc1ccc2c(C)nc(Nc3nc(C)c(C)c(=O)[nH]3)nc2c1,inactive: 200%,–
COc1ccc(NC(=O)C2=CC(c3ccco3)=NS(=O)(=O)N2C)cc1,–,"inconclusive: 0.501 µM [inhibitor, full curve]"
CCNC(=O)NC(=O)C(C)OC(=O)Cc1coc2cc3c(cc12)CCC3 (stereo not drawn),–,"inconclusive: 89.1 µM [inhibitor, single point]"
CC1CN(C(=S)Nc2ccc(Cl)cc2)CC(C)O1 (stereo not drawn),–,"inconclusive: 100 µM [inhibitor, single point]"
COc1cccc(NC(=O)COC(=O)c2cc(S(=O)(=O)N3CCOCC3)ccc2C)c1,inactive: -0.0349%,–
COc1ccccc1/C=C/C(=O)NCC(=O)N/N=C(/C)c1ccc(Cl)cc1,inactive: 13.2%,–
Cc1ccc(-c2nc(CS(=O)CC(=O)NCc3ccc(Cl)cc3)c(C)o2)cc1 (stereo not drawn),–,"inconclusive: 39.8 µM [inhibitor, partial curve, poor fit]"
COC(=O)c1cc2occc2n1Cc1nc(-c2ccccc2)oc1C,inactive: -1.68%,–
Cc1cc(C(F)(F)F)n2ncc(-c3ccc(F)cc3)c2n1,–,"inconclusive: 89.1 µM [inhibitor, partial curve]"
Cc1nnc(NC(=O)CCC(=O)NCc2cccs2)s1,inactive: -0.649%,–

SMILES,"activity change, negative = inhibition",Potency
O=c1cc(CN2CCN(c3ccccc3O)CC2)nc2sccn12,–,"inconclusive: 25.1 µM [inhibitor, full curve]"
COc1ccc(Cl)cc1NC(=O)c1cc2c(=O)n3ccccc3nc2s1,–,active: 7.08 µM
CCC(CNc1cc(OC)cc2cccnc12)NC1CCCCC1 (stereo not drawn),inconclusive: -61.3% [inhibitor],–
CC1Cc2ccccc2N1CC(=O)Nc1cccc(S(N)(=O)=O)c1 (stereo not drawn),–,"inconclusive: 2 µM [inhibitor, full curve]"
COc1cc2nc(NCCCN3CCN(C)CC3)n3nc(-c4ccccc4)nc3c2cc1OC,–,active: 25.1 µM
CCOC(=O)COc1ccc(C2C(C(=O)OC)=C(C)NC3=C2C(=O)c2ccccc23)cc1Cl (stereo not drawn),–,"inconclusive: 0.355 µM [inhibitor, partial curve]"
O=C(Nc1ccc(Cl)cc1)Nc1ccccc1NS(=O)(=O)c1cccs1,–,"inconclusive: 89.1 µM [inhibitor, single point]"
CSc1ccc(CCNC(=O)NCc2noc3ccccc23)cc1,inactive: 38.5%,–
Cc1nn(Cc2ccccc2)c(Cl)c1/C=C/C(=O)OCC(=O)NC(C)C(C)C (stereo not drawn),–,"inconclusive: 0.794 µM [inhibitor, full curve, poor fit]"
CCn1cc(C(=O)N[C@H](C(=O)NC(C)(C)CO)C(C)C)c(=O)c2cc3c(cc21)OCO3,–,"inconclusive: 4.47 µM [inhibitor, full curve]"
O=C(NCCCN=C1NS(=O)(=O)c2ccccc21)c1ccc(Cl)cc1,–,"inconclusive: 39.8 µM [inhibitor, single point]"
CCn1c(SCC(=O)c2ccc(O)c(O)c2)nnc1-c1ccccc1OC,–,active: 10 µM
CC(=O)N1CCN(C(=O)CCc2nc3sc4c(c3c(=O)[nH]2)CCCC4)CC1,inactive: 29.1%,–
O=C(Oc1coc(CSc2nnc(NC(=O)C3CC3)s2)cc1=O)c1ccccc1,–,"inconclusive: 25.1 µM [inhibitor, full curve]"
COc1ccc(Cl)cc1NC(=O)Nc1cnccn1,–,"inconclusive: 35.5 µM [inhibitor, full curve]"
CCCCNC1C(CC)C(CCC)C(C#N)(C#N)C1(C#N)C#N (stereo not drawn),inactive: -1.52%,–
Cc1ccc(NC(=O)CSc2nnc3ccc4ccccc4n23)cc1,inactive: -1.54%,–
CCn1c(C)nc2cc(C(=O)N/N=C/c3cccc(O)c3O)ccc21,–,"inconclusive: 22.4 µM [inhibitor, full curve]"
COCCn1c(SCc2nc3ccccc3c(=O)[nH]2)nc2ccccc2c1=O,–,"inconclusive: 3.98 µM [inhibitor, single point]"
O=[N+]([O-])c1ccc(N=NN(CCO)CCO)cc1,–,"inconclusive: 79.4 µM [inhibitor, single point]"
Cc1ccc(/C=C/C(=O)NCc2ccco2)o1,–,active: 22.4 µM
O=C(Nc1cccnc1)c1cc2cc(Br)ccc2o1,–,"inconclusive: 50.1 µM [inhibitor, partial curve]"
COc1cccc(N2CC(C(=O)Nc3nnc(SCC(=O)NC4CCCC4)s3)CC2=O)c1 (stereo not drawn),inactive: -7.11%,–
Cc1ccc2c(c1)N(C(=O)CCC(=O)N1CCN(c3cccc(C)c3C)CC1)CCO2,–,"inconclusive: 0.112 µM [inhibitor, full curve, poor fit]"
CC(C)CC(O)C1CCN(C(=O)CCc2nnc(-c3ccccc3)o2)CC1 (stereo not drawn),–,"inconclusive: 0.126 µM [inhibitor, full curve, poor fit]"

# Single records, from the list above. Values in the order: activity change, negative = inhibition	Potency
# CC(=O)N1CCN(C(=O)CCc2nc3sc4c(c3c(=O)[nH]2)CCCC4)CC1 in the list: inactive: 29.1%	–
# CC1Cc2ccccc2N1CC(=O)Nc1cccc(S(N)(=O)=O)c1 (stereo not drawn) in the list: –	inconclusive: 2 µM [inhibitor, full curve]
# Cc1ccc2c(c1)N(C(=O)CCC(=O)N1CCN(c3cccc(C)c3C)CC1)CCO2 in the list: –	inconclusive: 0.112 µM [inhibitor, full curve, poor fit]

# (list continues)

SMILES,"activity change, negative = inhibition",Potency
NC(N)=NN=C1CCC(c2ccccc2)CC1 (stereo not drawn),inactive: -8.02%,–
C=C(C)C(=O)NC1=NN(c2ccccc2)C(=O)C1,–,"inconclusive: 11.2 µM [inhibitor, full curve]"
O=C1c2ccccc2C(=O)N1n1cccc1,–,"inconclusive: 3.55 µM [inhibitor, full curve]"
CC(/C=C1\SC(=S)N(CCC(=O)Nc2ccccc2O)C1=O)=C\c1ccccc1,inactive: 2.66%,–
COC(=O)c1ccccc1NC(=O)C1CCN(S(=O)(=O)c2cc(OC)ccc2OC)CC1,inactive: -6.7%,–
Cc1nn(CCCC(=O)NCc2ccccc2)c(=O)c2cc3sccc3n12,–,"inconclusive: 28.2 µM [inhibitor, single point]"
COC(=O)c1ccccc1NS(=O)(=O)c1ccc2c(c1)CCCN2C(C)=O,inactive: 29%,–
COc1ccc(CCN2C(=O)C3C4CC(C5C(C(N)=O)=NOC45)C3C2=O)cc1OC (stereo not drawn),–,"inconclusive: 31.6 µM [inhibitor, full curve]"
C[C@@H](Oc1ccccc1)c1nnn(Cc2ccccc2)c1-c1c([C@@H](C)Oc2ccccc2)nnn1Cc1ccccc1,–,"inconclusive: 89.1 µM [inhibitor, single point]"
Cc1[nH]c2ccccc2c1/C=N/Nc1nc2ccccc2[nH]1,inconclusive: -32.4% [inhibitor],–
O=C(NCc1ccco1)c1cccc(C(F)(F)F)c1,–,"inconclusive: 22.4 µM [inhibitor, single point]"
O=C1N/C(=C/c2ccco2)C(=O)N1Cc1ccccc1F,–,"inconclusive: 25.1 µM [inhibitor, full curve]"
COCCSc1ccccc1C(=O)Nc1ccc(Cl)cn1,inactive: 2.3%,–
COc1ccc(/C=N/Nc2cc(C)nc3c(C)cccc23)cc1,–,active: 25.1 µM
Cc1cc(C)c(-c2csc(NC(=O)c3n[nH]c(=O)c4ccccc34)n2)c(C)c1,–,"inconclusive: 15.8 µM [inhibitor, partial curve, poor fit]"
CCOC(=O)c1ccc(NC(=O)COc2cc3oc(=O)c(CC(C)O)c(C)c3cc2Cl)cc1 (stereo not drawn),inconclusive: -32.1% [inhibitor],–
COc1cccc(NS(=O)(=O)c2ccc3[nH]cc(C(=O)NCCC(C)C)c(=O)c3c2)c1,–,"inconclusive: 0.282 µM [inhibitor, full curve, poor fit]"
O=C(Nc1ccc(Br)cc1)C(Cc1ccccc1)NS(=O)(=O)c1cccc2nsnc12 (stereo not drawn),inactive: -8.17%,–
Nc1c(-c2nc(-c3ccccc3)no2)nnn1CC(=O)Nc1cccc(F)c1,–,active: 14.1 µM
CCN(CC)CCN(C(=O)c1ccco1)c1nc2cc(C)cc(C)c2s1,–,active: 56.2 µM
COc1ccc(CNC(=O)c2cccnc2Sc2ccc(C)c(C)c2)cc1,–,"inconclusive: 0.141 µM [inhibitor, full curve, poor fit]"
CC(=O)c1ccc(NC(=O)CN(C)S(=O)(=O)c2cc3c(cc2Cl)NC(=O)CO3)cc1,–,"inconclusive: 31.6 µM [inhibitor, full curve]"
COc1ccc(NC(=O)Cn2ncc(Cl)c(Cl)c2=O)cc1S(=O)(=O)N1CCOCC1,–,active: 10 µM

# — PubChem BioAssay AID485314 (National Center for Advancing Translational Sciences (NCATS), 2010)
